Source: PubChem BioAssay AID2551 (National Center for Advancing Translational Sciences (NCATS), 2010)
Screen size: about 310,000 compounds; about 17,000 (5.5%) were called active. The inconclusive results got no clear call from the source; some entries with a clear call stand among them for comparison. Calls follow the shape of the dose curve; as a rule, active = well fitted inhibition curve with a large enough effect; inconclusive = small, poorly fitted or top-dose-only effect, or effect the other way; inactive = no such curve, though single readings can be large or run the other way. Where the call is inconclusive, the potency comes from a doubtful curve fit.

The chains behind the UniProt entries cited, without tags or fusion partners. Where a name states a change or a piece, a line headed by the entry shows the natural chain unless it says otherwise.
UniProt P51450: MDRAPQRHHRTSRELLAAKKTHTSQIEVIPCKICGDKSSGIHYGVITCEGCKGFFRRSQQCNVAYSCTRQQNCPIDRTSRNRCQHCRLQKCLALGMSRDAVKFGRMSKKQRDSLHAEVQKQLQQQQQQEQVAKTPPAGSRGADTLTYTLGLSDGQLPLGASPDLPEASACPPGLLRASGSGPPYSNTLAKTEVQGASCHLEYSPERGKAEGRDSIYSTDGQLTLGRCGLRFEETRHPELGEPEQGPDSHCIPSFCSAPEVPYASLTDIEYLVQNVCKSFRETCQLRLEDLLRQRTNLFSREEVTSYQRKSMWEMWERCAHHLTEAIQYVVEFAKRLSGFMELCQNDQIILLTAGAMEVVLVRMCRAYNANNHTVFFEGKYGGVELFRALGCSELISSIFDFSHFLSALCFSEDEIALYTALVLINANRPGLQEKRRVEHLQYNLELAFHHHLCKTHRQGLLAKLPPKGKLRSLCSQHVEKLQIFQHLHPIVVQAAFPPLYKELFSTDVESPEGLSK

target: Nuclear receptor ROR-gamma (Mus musculus) (UniProt P51450); test: qHTS for inhibitors of ROR gamma transcriptional activity; details: Drosophila S2 Gal4-RORgamma UAS-luciferase reporter, 20 h; activity change, negative = inhibition: at 53.6 µM (top of the series); also: nearly all actives have a fitted effect of over 60% in size
Outline: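 Luciferase reporter read in Schneider cells carrying Gal4-RORγ (mouse) and UAS-Photinus luciferase; cells given compound 1 h before 700 uM copper sulfate induction, then incubated 20 h at ambient temperature.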
% is scaled to controls: 0 for no effect and ±100 for the full control effect; potency is read from the fitted curve at half-maximal effect.

Row | SMILES | Potency | activity change, negative = inhibition
1 | CCCOc1ccc(-c2c(C(=O)N/N=C/C3CCCCC3)nnn2-c2nonc2N)cc1 | inconclusive: 35.5 µM [inhibitor, single point] | –
2 | C/C(=N\OCC(=O)N/N=C/c1ccccc1O)c1cccs1 | active: 1.12 µM | –
3 | COc1ccccc1OCc1n[nH]c(=S)n1Cc1ccccc1 | inactive | –
4 | COc1cccc(N2CC(O)Cn3c2nc2c3c(=O)n(CCCc3ccccc3)c(=O)n2C)c1 (centres undefined) | inactive | –
5 | CN1CCN(S(=O)(=O)c2ccc(NC(=O)c3ccc(F)cc3)cc2)CC1 | inconclusive: 12.6 µM [activator, partial curve] | –
6 | O=S(=O)(O)c1cc(I)c(O)c2ncccc12 | inconclusive: 12.6 µM [inhibitor, single point] | –
7 | COc1ccc(OC)c(-c2cnc(OC(C)(C)C)nc2OC(C)(C)C)c1 | inconclusive: 11.2 µM [inhibitor, partial curve] | –
8 | CCOc1ccccc1-c1nn2c(Cc3ccccc3)nnc2s1 | inactive | –
9 | Cn1c(N/N=C/c2cccs2)nc2c1c(=O)n(Cc1ccccc1)c(=O)n2C | inactive | –
10 | Cc1ccc(Cn2c(O)c(N=NC(=S)Nc3ccccc3F)c3ccccc32)cc1 | active: 3.98 µM | –
11 | Cc1occc1C(=O)NNC(=O)c1ccccc1Br | inactive | –
12 | O=C(CN1CCN(Cc2ccccc2)CC1)Nc1cccc(S(=O)(=O)N2CCCCCC2)c1 | inconclusive: 17.8 µM [activator, single point] | –
13 | COC(=O)Cn1cnc2c(nnn2-c2ccc(OC)cc2)c1=O | inactive | –
14 | O=S1(=O)CCN(Cc2ccc(Cl)c(C(F)(F)F)c2)CC1 | inconclusive: 17.8 µM [activator, single point] | –
15 | Cc1n[nH]c(=S)n1/N=C/c1ccccc1OCc1ccc(Cl)cc1 | active: 4.47 µM | –
16 | Cc1ccc(S(=O)(=O)N2CCN(c3ccc(C(=O)N4CCOCC4)cc3[N+](=O)[O-])CC2)cc1 | inconclusive: 11.2 µM [activator, partial curve] | –
17 | CCC(=O)N1CCN(c2ccccc2NC(=S)NC(=O)c2cccc([N+](=O)[O-])c2)CC1 | active: 7.94 µM | –
18 | CN(CC1CCOCC1)C(=O)c1ccc2nc(Cc3cccc(Cl)c3)oc2c1 | inactive | –
19 | Cc1cccc(-c2nnc(NC(=O)c3ccc(Cl)cc3)o2)c1 | active: 1.41 µM | –
20 | CCOC(=O)c1ccc(NC(=O)c2cccc(S(=O)(=O)N3CCN(C(C)=O)CC3)c2)cc1 | inconclusive: 10 µM [activator, partial curve] | –
21 | COc1ccc(C(=O)Nc2ccc(C(=O)N3CCC(C)CC3)cc2)cc1OC | inactive | –
22 | CCC1=NN(C(=O)c2cccc(Br)c2)C(O)(c2ccc(Br)cc2)C1 (centres undefined) | – | inactive: -6.89% [at 10 µM]
23 | O=C(NC1CCCCC1)C1CCCN(S(=O)(=O)c2cccc3cccnc23)C1 (centres undefined) | inconclusive: 12.6 µM [activator, single point] | –
24 | CC(C)CNS(=O)(=O)c1ccc(S(=O)(=O)N2CCN(C3CCCC3)CC2)cc1 | inconclusive: 12.6 µM [activator, single point] | –
25 | O=C1C=C(N2CCOCC2)c2ccccc2C1=O | active: 3.98 µM | –

Full records as entered above. Values in the order: Potency	activity change, negative = inhibition
Cc1ccc(S(=O)(=O)N2CCN(c3ccc(C(=O)N4CCOCC4)cc3[N+](=O)[O-])CC2)cc1 in the list: inconclusive: 11.2 µM [activator, partial curve]	–
O=C(NC1CCCCC1)C1CCCN(S(=O)(=O)c2cccc3cccnc23)C1 (centres undefined) in the list: inconclusive: 12.6 µM [activator, single point]	–

Following part

Row | SMILES | Potency | activity change, negative = inhibition
26 | O=C(N/N=C/c1c[nH]c2ccccc12)c1ccncc1 | inconclusive: 35.5 µM [inhibitor, single point] | –
27 | C/C(=N\NC(=S)NC1CCCCC1)c1ccccc1 | inconclusive: 0.112 µM [inhibitor, partial curve] | –
28 | CCOc1cccc(/C=C/c2ccc3cccc(O)c3n2)c1O | active: 3.55 µM | –
29 | Cc1ccc(C(=O)N[C@H](C(=O)OCc2nnc(-c3ccccc3)o2)C(C)C)cc1 | inconclusive: 10 µM [activator, partial curve] | –
30 | O=C(CSc1ccc(-c2ccccn2)nn1)c1ccccc1 | inconclusive: 15.8 µM [inhibitor, single point] | –
31 | Cc1ccc(C(=O)NNC2=Nc3cccc4cccc2c34)cc1 | active: 0.891 µM | –
32 | CC(Oc1ccc(Cl)cc1Cl)C(=O)NC1=NN(c2ccccc2)C(=O)C1 (centres undefined) | inconclusive: 15.8 µM [activator, partial curve] | –
33 | COC(=O)c1c(NC(=O)CCc2ccc(C)o2)sc(C)c1C | inconclusive: 25.1 µM [inhibitor, single point] | –
34 | O=C(N/N=C\c1ccc([N+](=O)[O-])o1)c1cncc(Br)c1 | inconclusive: 25.1 µM [inhibitor, single point] | –
35 | O=C(O)CSc1nnc(NC(=O)c2ccc3c(c2)OCO3)s1 | active: 12.6 µM | –
36 | O=C(O)C1CC=CCC1C(=O)Nc1ccccc1 (centres undefined) | inconclusive: 15.8 µM [activator, single point] | –
37 | c1cncc(Nc2nc(-c3cccs3)cs2)c1 | inconclusive: 20 µM [inhibitor, single point] | –
38 | O=C(CCCc1c[nH]c2ccccc12)N1CCCCCC1 | inconclusive: 1 µM [inhibitor, full curve, poor fit] | –
39 | Nc1nc(CCl)nc(Nc2ccccc2)n1 | inactive | –
40 | COc1ccc(-c2cn[nH]c2-c2ccc(OCc3ccc([N+](=O)[O-])cc3)cc2O)cc1 | active: 2.82 µM | –
41 | Cc1cc(N2CCN(C)CC2)nc2ccc(NC(=S)N3CCN(c4ccc(F)cc4)CC3)cc12 | inconclusive: 17.8 µM [inhibitor, single point] | –
42 | O=C(N/N=C/c1ccc(-c2ccc([N+](=O)[O-])cc2)o1)c1cccnc1 | active: 11.2 µM | –
43 | O=C1[C@H](CC[C@H](O)c2ccc(F)cc2)[C@@H](c2ccc(O)cc2)N1c1ccc(F)cc1 | inconclusive: 7.08 µM [inhibitor, single point] | –
44 | CCN1/C(=C\C(=S)Nc2ccccc2)Sc2ccccc21 | active: 3.98 µM | –
45 | CCCCCC(=O)NC(=S)Nc1ccccc1C(=O)OC | active: 14.1 µM | –
46 | CCOC(=O)C1=NN(C(=O)c2ccc(OC)cc2)C(O)(c2ccc(Cl)cc2)C1 (centres undefined) | active: 10 µM | –
47 | CCOC(=O)c1c(-c2ccccc2)oc2ccc(OCC(N)=O)cc12 | inactive | –
48 | C(=N\n1cnnc1)/c1nc2ccccc2[nH]1 | inconclusive: 35.5 µM [inhibitor, single point] | –
49 | Fc1ccc(Nc2nc(N/N=C/c3ccco3)nc(N3CCCCC3)n2)cc1 | active: 2.82 µM | –

2 entries picked at random from those above, as already listed:
Row | SMILES | Potency | activity change, negative = inhibition
28 | CCOc1cccc(/C=C/c2ccc3cccc(O)c3n2)c1O | active: 3.55 µM | –
47 | CCOC(=O)c1c(-c2ccccc2)oc2ccc(OCC(N)=O)cc12 | inactive | –
